About 13,000 (3.2%) of roughly 400,000 compounds were called active. This list was built around the results that the source calls inconclusive (neither active nor inactive); the mix of calls is not that of the screen. Calls follow the shape of the dose curve; as a rule, active = well fitted cell-killing curve with a large enough effect; inconclusive = small, poorly fitted or top-dose-only effect, or effect the other way; inactive = flat fitted curve, though single readings scatter. Where the call is inconclusive, the potency comes from a doubtful curve fit.
Test: qHTS assay for MDR1-selective chemotherapeutics: Primary screen using the drug-selected MDR subline cells KB-V1; also: nearly all actives have a fitted effect of over 60% in size
Details: KB-V1 MDR cells viability, CellTiter-Glo, 72 h; series mostly up to 46.1 µM
Outline: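 Cells of the MDR subline KB-V1 are plated, dosed with compound at multiple concentrations, and incubated 72 h at 37 degrees C; CellTiter-Glo is then added and luminescence read after 10 min.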
Potency is read from the fitted curve at half-maximal effect.

Row | SMILES | Potency
1 | Cc1ccc(CNc2nc(C)nc3sc4c(c23)CCC4)cc1 | active: 8.2 µM
2 | O=C(NNC(=S)NC(=O)c1cccs1)c1ccc(NC(=O)c2ccccc2)cc1 | inconclusive: 7.31 µM [cytotoxic, partial curve]
3 | COc1cc(C(=O)NCC(c2cccs2)N2CCc3ccccc32)cc(OC)c1OC (centres undefined) | inactive
4 | CCOC(=O)C1=NN(c2ccc(OC)cc2)C(c2ccccc2)CC1=O (centres undefined) | inconclusive: 11.6 µM [cytotoxic, partial curve]
5 | CCOc1ccc(NC(=O)C2CCN(S(=O)(=O)c3ccc4c(c3)oc(=O)n4C)CC2)cc1 | inactive
6 | CCCCNC(=O)c1onc(CSc2ccc(Cl)cc2)c1C(=O)NCCCC | inactive
7 | Cc1nc2cc(NC(=O)NC(C)(C)C)ccc2n1C | inconclusive: 23.1 µM [rising, partial curve, poor fit]
8 | COc1ccc2[nH]c3c(c2c1)CCN1C(=O)C(CC(=O)NCC24CC5CC(CC(C5)C2)C4)C[C@H](C(=O)N2CCCCC2)[C@@]31C (some centres undefined) | inconclusive: 29.1 µM [cytotoxic, partial curve, poor fit]
9 | O=C(CCc1ccncc1)N1CCCC(Nc2ccc(F)c(F)c2)C1 (centres undefined) | inactive
10 | Cc1ccc(NC(=S)NNS(=O)(=O)c2ccc3ccccc3c2)cc1Cl | inactive
11 | Cc1nc2c(OCc3cc(Cl)cc(Cl)c3)cccn2c1N(C)C(=O)CCC1CCCC1 | inconclusive: 8.2 µM [cytotoxic, partial curve]
12 | CC(C)c1ccc(S(=O)(=O)c2nnn3c2nc(N2CCOCC2)c2sccc23)cc1 | inactive
13 | O=C1NC(c2ccc(Cl)cc2Cl)Oc2ccccc21 (centres undefined) | inconclusive: 23.1 µM [rising, single point]
14 | CN(C(=O)c1ccc2c(c1)S(=O)(=O)N=C1CCCCCN12)c1ccccc1 | inactive
15 | COC(=O)[C@]12CCCCC=C1N(Cc1ccccc1)C(=O)[C@H](CC(=O)N1CCSCC1)C2 | inconclusive: 3.66 µM [cytotoxic, full curve]
16 | Cc1ccc(C(=O)O/N=C(\N)Cc2cccs2)c(Cl)c1 | inactive
17 | CN(C)c1ccc(P(=O)(OCc2ccccc2)C(O)c2ccccc2)cc1 (centres undefined) | inconclusive: 11.6 µM [cytotoxic, partial curve]
18 | Brc1ccc(-n2cnc(-c3ccccc3)c2)cc1 | inconclusive: 29.1 µM [cytotoxic, single point]
19 | COc1ccc([C@H]2N[C@]3(CCCN(Cc4ccc(C(F)(F)F)cc4)C3=O)[C@H]3C(=O)N(Cc4ccccc4)C(=O)[C@@H]23)cc1 | inconclusive: 29.1 µM [cytotoxic, single point]

Given as tab-separated lines: 2 of the compounds above.
Row	SMILES	Potency
7	Cc1nc2cc(NC(=O)NC(C)(C)C)ccc2n1C	inconclusive: 23.1 µM [rising, partial curve, poor fit]
12	CC(C)c1ccc(S(=O)(=O)c2nnn3c2nc(N2CCOCC2)c2sccc23)cc1	inactive

From PubChem BioAssay AID1347076 (National Center for Advancing Translational Sciences (NCATS), 2019)
